Experimental data taken from paper PMC10726618.
These are yes or no findings as the source states them, for the method shown. Binding seen in cells or lysates may run through a third protein. A result given as binding can be weak or reduced; the word gives no strength. Blank lines part the entries; values can stand above or below the binder they belong to.

Biological target: AKT, in HCC cells (Huh1) (human (endogenous in Huh1))
Assay: co-IP; co-IP in HCC cells (Huh1) with STEAP4 overexpression, empty vector, STEAP4 knockdown or scramble; PDK1 as positive control; which protein was precipitated is not told

binding: binds
B1: PDK1 (protein, UniProt O15530 1-556)
chain: MARTTSQLYDAVPIQSSVVLCSCPSPSMVRTQTESSTPPGIPGGSRQGPAMDGTAAEPRPGAGSLQHAQPPPQPRKKRPEDFKFGKILGEGSFSTVVLARELATSREYAIKILEKRHIIKENKVPYVTRERDVMSRLDHPFFVKLYFTFQDDEKLYFGLSYAKNGELLKYIRKIGSFDETCTRFYTAEIVSALEYLHGKGIIHRDLKPENILLNEDMHIQITDFGTAKVLSPESKQARANSFVGTAQYVSPELLTEKSACKSSDLWALGCIIYQLVAGLPPFRAGNEYLIFQKIIKLEYDFPEKFFPKARDLVEKLLVLDATKRLGCEEMEGYGPLKAHPFFESVTWENLHQQTPPKLTAYLPAMSEDDEDCYGNYDNLLSQFGCMQVSSSSSSHSLSASDTGLPQRSGSNIEQYIHDLDSNSFELDLQFSEDEKRLLLEKQAGGNPWHQFVENNLILKMGPVDKRKGLFARRRQLLLTEGPHLYYVDPVNKVLKGEIPWSQELRPEAKNFKTFFVHTPNRTYYLMDPSGNAHKWCRKIQEVWRQRYQSHPDAAVQ

binding: binds
B2: STEAP4, in HCC cells (Huh1) (protein, UniProt Q687X5 1-459)
chain: MEKTCIDALPLTMNSSEKQETVCIFGTGDFGRSLGLKMLQCGYSVVFGSRNPQKTTLLPSGAEVLSYSEAAKKSGIIIIAIHREHYDFLTELTEVLNGKILVDISNNLKINQYPESNAEYLAHLVPGAHVVKAFNTISAWALQSGALDASRQVFVCGNDSKAKQRVMDIVRNLGLTPMDQGSLMAAKEIEKYPLQLFPMWRFPFYLSAVLCVFLFFYCVIRDVIYPYVYEKKDNTFRMAISIPNRIFPITALTLLALVYLPGVIAAILQLYRGTKYRRFPDWLDHWMLCRKQLGLVALGFAFLHVLYTLVIPIRYYVRWRLGNLTVTQAILKKENPFSTSSAWLSDSYVALGILGFFLFVLLGITSLPSVSNAVNWREFRFVQSKLGYLTLILCTAHTLVYGGKRFLSPSNLRWYLPAAYVLGLIIPCTVLVIKFVLIMPCVDNTLTRIRQGWERNSKH
